Laboratory results taken from paper PMC5871717, “Transposase-DNA Complex Structures Reveal Mechanisms for Conjugative Transposition of Antibiotic Resistance” (Cell, 2018).
Tags and fusion partners may be left off the protein sequences shown.

Biological target: T1, Int82N (Enterococcus faecalis) (UniProt Q7BP35)
T1 sequence (looked up): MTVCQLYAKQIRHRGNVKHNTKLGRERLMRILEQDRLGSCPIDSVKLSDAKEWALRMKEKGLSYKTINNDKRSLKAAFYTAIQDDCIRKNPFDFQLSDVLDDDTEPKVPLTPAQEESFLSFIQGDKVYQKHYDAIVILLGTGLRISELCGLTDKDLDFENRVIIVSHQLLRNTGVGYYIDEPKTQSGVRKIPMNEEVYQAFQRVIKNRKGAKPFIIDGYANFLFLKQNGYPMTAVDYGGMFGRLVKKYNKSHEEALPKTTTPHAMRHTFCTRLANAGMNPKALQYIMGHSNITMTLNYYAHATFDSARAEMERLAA
Assay: EMSA
Settings: […] (50 mM HEPES pH 7.5, 250 mM NaCl, 5 mM DTT, 10% glycerol), residues 82-397, protein details: 6xHis-SUMO removed by SenP2, extra N-terminal S81, label: 2AP

Sequence | binding result (2-aminopurine (written A) at first IR base after crossover on each strand, recombinant protein) | binding result (2-aminopurine (written A) at position 24 of top and 25 of bottom strand, recombinant …)
TGCGATAACCTAAAATTTTATAGCAAAATTATATGGGATTTTAG / CTAAAATCCCATATAATTTTGCTATAAAATTTTAGGTTATCGCT [CI5-IR] | binds | –
TGCGATAACCTAAAATTTTTTAGAAAAATTATATGGGATTTTAG / CTAAAATCCCATATAATTTTCCTAAAAAATTTTAGGTTATCGCT [CI5-F] | – | binds
